In patent publication US20190160102A1:
No constants are given. Whether binding was seen depends on the method and setting. Some results given as binding are weak or reduced against the parent protein; the word gives no strength. Where a sequence is shown, tags or fusion partners need not be part of it.

Protein sequences, listed by entry. Tags and fused reporters are not part of them. Lines headed by an entry give the natural chain unless they say otherwise; changes in a name come on top.
UniProt P20138: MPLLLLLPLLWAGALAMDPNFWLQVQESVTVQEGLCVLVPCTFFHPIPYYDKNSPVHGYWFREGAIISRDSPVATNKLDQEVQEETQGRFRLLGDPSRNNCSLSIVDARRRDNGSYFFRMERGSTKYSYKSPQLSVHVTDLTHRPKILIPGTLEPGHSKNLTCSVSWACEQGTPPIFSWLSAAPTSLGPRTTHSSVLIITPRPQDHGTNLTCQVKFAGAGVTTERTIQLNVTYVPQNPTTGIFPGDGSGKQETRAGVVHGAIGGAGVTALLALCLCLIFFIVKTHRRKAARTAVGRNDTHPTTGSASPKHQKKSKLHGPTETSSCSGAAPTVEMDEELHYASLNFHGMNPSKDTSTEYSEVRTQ

What was measured:
[1] = biological target: recombinant CD33-HisTag (Homo sapiens (Human)) (UniProt P20138); experiment: flow cytometry on erythroid cells expressing the construct
[2] = biological target: CD33 on MV-4-11 human AML cells (human) (UniProt P20138); experiment: flow cytometry, cell-cell binding

binding [1]: binds
binding [2]: binds
B1: HA-αCD33scFv-GPA (anti-CD33 scFv fused to the N-terminus of GPA), expressed on the surface of erythroid cells (scFv)
chain: QVQLVQSGAEVKKPGASVKVSCKASGYTFTNYDINWVRQAPGQGLEWIGWIYPGDGSTKYNEKFKAKATLTADTSTSTAYMELRSLRSDDTAVYYCASGYEDAMDYWGQGTTVTVSSGGGGSGGGGSGGGGSDIQMTQSPSSLSASVGDRVTINCKASQDINSYLSWFQQKPGKAPKTLIYRANRLVDGVPSRFSGSGSGQDYTLTISSLQPEDFATYYCLQYDEFPLTFGGGTKVEIKGGSGGSGGYPYDVPDYAGGSGGSGGMYGKIIFVLLLSEIVSISALSTTEVAMHTSTSSSVTKSYISSQTNDTHKRDTYAATPRAHEVSEISVRTVYPPEEETGERVQLAHHFSEPEITLIIFGVMAGVIGTILLISYGIRRLIKKSPSDVKPLPSPDTDVPLSSVEIENPETSDQ
